± gives the standard deviation of the averaged measurements. Whole data set: some 3,800 compounds, median “cell shape (eccentricity) Z-score vs DMSO control” near 1.1, cut for the lowest 2% near -4.7. The list shows a part of the results. Non-standard residues stand in square brackets, D forms with d. Residues, ends and D or L forms follow the SMILES beside them. ξ: configuration not given here. ξLac(3-iPr) = CC(C)CC(O)C(=O)O; NMeV = CN[CH](C(=O)O)C(C)C; NMeA = CN[CH](C)C(=O)O; βAla = NCCC(=O)O
System: human monocyte-derived macrophages (M0)
Assay: cell shape (eccentricity) Z-score vs DMSO control; higher = more elongated, M2-like morphology
Conditions: 20 µM; 24 h; macrophage state: M0 (M-CSF)

Structure (SMILES) | cell shape (Z-score)
CCCCCCC(C)(C)c1ccc(C2CC(O)CCC2CCCO)c(O)c1 (centres undefined) | 2.5
OC[C@@H]1CCCN2CCCC[C@H]12 | 1.75
C[C@]12CCC3C(CC[C@]4(O)C[C@@H](O)CC[C@]34C=O)[C@@]1(O)CCC2C1=CC(=O)OC1 (some centres undefined) | -3.05
CO[C@H]1[C@@H](O)[C@@H](C)O[C@@H](OC2CCC3(C)C(CC[C@@H]4[C@@H]3CCC3(C)C(C5=CC(=O)OC5)C(O)CC43O)C2)[C@@H]1O (some centres undefined) | -1.74 ± 0.077
CC1(C)C(=O)C=C[C@@]2(C)C1C[C@@H](O)[C@]1(C)C2CC[C@@]2(C)[C@H](c3ccoc3)OC(=O)[C@H]3O[C@]321 (some centres undefined) | 1.86
Cc1ncc(CNC(=O)N(CCCl)[N+][O-])c(N)n1 | -0.322
Oc1ccc2c3c1OC1c4[nH]c5ccccc5c4CC4(O)C(C2)N(CC2CC2)CCC314 (centres undefined) | 2.11
CCC(Oc1ccc(Cl)cc1)C(=O)OC1CC2CCC(C1)N2C (centres undefined) | 3.78
CC(C)[N+](C)(CCC(C(N)=O)(c1ccccc1)c1ccccc1)C(C)C | 1.08
O=C(CCCN1CCC2(CC1)C(=O)N(Cc1cccc(F)c1)CN2c1ccccc1)c1ccc(F)cc1 | -0.999
CN1C2CCC1CC(OC(c1ccccc1)c1ccc(Cl)cc1)C2 (centres undefined) | 2.13
COP(=S)(OC)Oc1ccc(SC)c(C)c1 | 2.72
C=CCN1CCC23c4c5ccc(O)c4OC2C(=O)CCC3(O)C1C5 (centres undefined) | 3
Fc1ccc(C(OCCN2CCN(CCCc3ccccc3)CC2)c2ccc(F)cc2)cc1 | -0.302
C[C@]12CC[C@H]3[C@@H](CC[C@]4(O)C[C@@H](O)CC[C@]34C=O)[C@@]1(O)CC[C@@H]2C1=CC(=O)OC1 | -0.816
O=C1CCCC2C3CC(CN12)[C@@H]1CCCCN1C3 (some centres undefined) | 1.6
N=C(NCc1ccc(Cl)cc1)SCCCc1c[nH]cn1 | 0.48
O=C(NCCN1CCC2(CC1)C(=O)NCN2c1ccccc1)c1ccc2ccccc2c1 | 0.637
COc1cc(C)c(Oc2cc(C)cc(O)c2)c(O)c1 | -1.26
N#CC(O[C@@H]1O[C@H](CO[C@@H]2O[C@H](CO)[C@@H](O)[C@H](O)[C@H]2O)[C@@H](O)[C@H](O)[C@H]1O)c1ccccc1 (some centres undefined) | 0.645
CC[C@H]1CN2CCC1C[C@@H]2[C@@H](O)c1ccnc2ccc(OC)cc12 (some centres undefined) | 1.7
OC12C3C4CC5C6C4C1C6C(C53)N2CCc1cccc(F)c1 (centres undefined) | -1.2
CC(C)c1cc2c(cc1O)[C@@]1(C)C[C@@H](O)CC(C)(C)C1CC2 (some centres undefined) | 1.57
CCC(COC(=O)c1cc(OC)c(OC)c(OC)c1)(c1ccccc1)N(C)C (centres undefined) | 3.35

Structure (SMILES) | cell shape (Z-score)
Oc1ccc(Cl)cc1 | -1.34
CC(=O)O[C@H]1C(=O)[C@@]2(C)C([C@H](OC(=O)c3ccccc3)[C@]3(O)C[C@H](O)C(C)=C1C3(C)C)[C@]1(OC(C)=O)CO[C@@H]1C[C@@H]2O (some centres undefined) | -3.7
O=C1CCC2(O)C3Cc4ccc(O)c5c4C2(CCN3CC2CC2)C1O5 (centres undefined) | 2.03
CC(=O)Oc1ccc(Cl)c2cccnc12 | 2.8
CC(O)(CS(=O)(=O)c1ccc(F)cc1)C(=O)Nc1ccc(C#N)c(C(F)(F)F)c1 (centres undefined) | -3.38
COC(=O)CN1CN(c2ccccc2)C2(CCN(Cc3ccc4ccccc4c3)CC2)C1=O | 3.67
NC(=O)CN1CCCC1=O | -0.0247
C#CCN1C(C)=C(C(=O)CCO)C(c2cccc(-n3oo3)c2)C(C(=O)OC)=C1C (centres undefined) | 2.66
CO[C@H]1C[C@H](OC2CCC3(C)C4CCC5(C)C(C6=CC(=O)OC6)CC(OC(C)=O)C5(O)C4CC[C@H]3C2)O[C@@H](C)[C@@H]1O (some centres undefined) | -2.73
CN1Cc2ccccc2[C@@H]2c3cccc4[nH]cc(c34)C[C@H]21 | 3.17
O=C1C=C2C=C[C@@H]3C[C@@]2(O1)[C@H]1CCCCN31 | 3.83
CC[N+]1(C)CCCC(OC(=O)C(O)(c2ccccc2)c2ccccc2)C1 (centres undefined) | -1.53
OC[C@H]1O[C@@H](Oc2ccc(/C=C/c3cc(O)cc(O)c3)cc2O)[C@H](O)[C@@H](O)[C@@H]1O | -0.871
c1ccc(CCCN2CCN(CCOC(c3ccccc3)c3ccccc3)CC2)cc1 | 4.69
C#CCOC(=O)C1=CCCN(C)C1 | -0.795
C[C@]12CC[C@@H](O)C[C@@H]1CC[C@@H]1[C@@H]2CC[C@]2(C)[C@@H](C(=O)CO)CC[C@@H]12 | 5.44
N#CC(O[C@@H]1O[C@H](CO)[C@@H](O)[C@H](O)[C@H]1O)c1ccccc1 (some centres undefined) | -1.17
CNC(=NS(=O)(=O)c1ccc(Cl)cc1)N1C[C@H](c2ccccc2)C(c2ccc(Cl)cc2)=N1 | 1.48
CCOP(=S)(OCC)Oc1cc(C)nc(C(C)C)n1 | 0.52
Clc1ccc(C2=CCCC3CCC2N3)cn1 (centres undefined) | 7.05
Cn1c2c(c3ccccc31)CCNCC2 | 1.06
c1ccc2sc(C3(N4CCCC4)CCCCC3)cc2c1 | 1.93
NCCc1c[nH]c2ccccc12 | 2.21
CC(=O)OC1CCC2(C)C(CC[C@@H]3[C@@H]2CCC2(C)C(C4=CC(=O)OC4)CCC32O)C1 (some centres undefined) | 0.344

Structure (SMILES) | cell shape (Z-score)
CC(C)(O)/C=C/C(=O)[C@](C)(O)C1[C@H](O)C[C@@]2(C)C3CC=C4C(CC(=O)C(=O)C4(C)C)[C@]3(C)C(=O)C[C@]12C (some centres undefined) | -23.9
COC(=O)c1cc2c(cn1)[nH]c1ccccc12 | 1.76
S=C(NC1CCCCC1)N1CCC(c2c[nH]cn2)CC1 | 1.33
CO[C@@H]1[C@H](O)[C@@H](O[C@@H]2C[C@H]3CC[C@@H]4C(CC[C@]5(C)[C@@H](C6=CC(=O)OC6)CC[C@]45O)[C@@]3(C)[C@H](O)C2)O[C@H](C)[C@@H]1O[C@@H]1O[C@H](CO)[C@@H](O)[C@H](O)[C@H]1O (some centres undefined) | -2.59 ± 0.87
Cc1[nH]c2ccc(Cl)cc2c1C1=CCNCC1 | -1.23
C=C(C)[C@H]1Cc2c(ccc3c2O[C@@H]2COc4cc(OC)c(OC)cc4[C@@H]2C3=O)O1 | -3.4
Cc1c(O)c(C(=O)O)c(O)c2c1[C@H](C)[C@@H](C)OC2=O | 0.172
CCC(=O)O[C@H]1CCC2C3CCC4=CC(=O)CC[C@]4(C)C3CC[C@@]21C (some centres undefined) | 1.77
O=C1c2ccccc2C(=O)c2ccccc21 | 1.99
COc1ccc2c(c1)c(CCN1CCOCC1)c(C)n2C(=O)c1cccc(Cl)c1Cl | 3.49
COc1cc(OC)c2c(c1)O[C@H](c1ccc(OC)c(OC)c1)[C@@H](O)C2 | 2.63
CC=C1CN2C3CC1C1(C(=O)OC)C2CC2(c4ccccc4N(C)C32)C1O (centres undefined) | -0.509 ± 2.3
O=C1CC2OCC=C3CN4CC[C@]56c7ccccc7N1C5[C@H]2[C@H]3CC46 (some centres undefined) | -0.204
Oc1ccc2c3c1OC1[C@@H](O)CC[C@@]4(O)[C@@H](C2)N(CC2CCC2)CC[C@]314 (some centres undefined) | -0.423
Cc1cccc(C)c1NC1=NCCCS1 | -0.715
C[C@@H]1O[C@@H](OC2CCC3(C)C4CCC5(C)C(C6=CC(=O)OC6)CCC5(O)C4CC[C@H]3C2)[C@H](O)[C@H](O)[C@H]1O (some centres undefined) | -1.64
N#CC(C#N)=NNc1cccc(Cl)c1 | 1.06
COC(=O)C1=COC(C)C2CN3CCC4(C(=O)Nc5ccccc54)C3CC12 (centres undefined) | 3.25
O=C(CCCN1CCC2(CC1)C(=O)NCN2c1ccccc1)c1ccc(F)cc1 | 0.313
CNC(C)C(O)c1ccccc1 (centres undefined) | -0.0152
CC(=O)OC1CC[C@@]2(C)C(CCC3C2CC[C@]2(C)C(C4=CC(=O)OC4)C(OC(C)=O)CC32O)C1 (some centres undefined) | -3.57
CN(C)[C@@H]1C(=O)C(C(N)=O)C(=O)[C@@]2(O)C(=O)C3C(=O)c4c(O)cccc4[C@](C)(O)[C@H]3C[C@@H]12 (some centres undefined) | -0.502
CCOC(=O)c1ncn2c1C1CCCN1C(=O)c1cc(OC)ccc1-2 (centres undefined) | 6.49
COc1c(C(C)C)cc2c(c1O)[C@@]1(C(=O)O)CCCC(C)(C)C1CC2 (some centres undefined) | 0.403 ± 3

Arranged by number of heavy atoms (descending): part of the list above.
Structure (SMILES) | cell shape (Z-score)
CC(=O)OC1CC[C@@]2(C)C(CCC3C2CC[C@]2(C)C(C4=CC(=O)OC4)C(OC(C)=O)CC32O)C1 (some centres undefined) | -3.57
CC=C1CN2C3CC1C1(C(=O)OC)C2CC2(c4ccccc4N(C)C32)C1O (centres undefined) | -0.509 ± 2.3
CCOC(=O)c1ncn2c1C1CCCN1C(=O)c1cc(OC)ccc1-2 (centres undefined) | 6.49
N#CC(C#N)=NNc1cccc(Cl)c1 | 1.06
CNC(C)C(O)c1ccccc1 (centres undefined) | -0.0152

The results go on:

Structure (SMILES) | cell shape (Z-score)
C[C@@H]1O[C@@H](O[C@H]2C[C@@H](O)[C@]3(CO)[C@H]4[C@H](O)C[C@]5(C)[C@@H](C6=CC(=O)OC6)CC[C@]5(O)[C@@H]4CC[C@]3(O)C2)[C@H](O)[C@H](O)[C@H]1O | 0.03
Oc1c(Cl)c(Cl)c(Cl)c(Cl)c1Cl | 1.36
c1ccc(CCCCN2CCC(c3ccccc3)CC2)cc1 | 0.721
COc1ccc(C[C@H]2NC[C@H](O)[C@H]2OC(C)=O)cc1 | 2.66
C=CCC1(C(C)CCC)C(=O)N=C(S)NC1=O (centres undefined) | 2.85
CCC(C)C1NC(=O)C2CCCN2C(=O)C(CC(C)C)OC(=O)CCNC(=O)C(C)N(C)C(=O)C(C(C)C)N(C)C1=O (centres undefined) (cyclo([ξLac(3-iPr)]PI[NMeV][NMeA][βAla]); configuration not given here) | 3.59
Cc1nnc2n1-c1sc(CCC(=O)N3CCOCC3)cc1C(c1ccccc1Cl)=NC2 | 1.51
COC12CC(COC(=O)c3cncc(Br)c3)CN(C)C1Cc1cn(C)c3cccc2c13 (centres undefined) | 1.27
CN1CCc2cc(O)cc3c2[C@H]1Cc1ccc(O)c(O)c1-3 | 1.06
C(=C\c1ccccc1)/CN1CCN(CCOC(c2ccccc2)c2ccccc2)CC1 | -5.62
CO[C@]12C[C@@H](COC(=O)c3cncc(Br)c3)CN(C)[C@@H]1Cc1cn(C)c3cccc2c13 | -0.607
CN(C(=O)Cc1ccc(Cl)c(Cl)c1)[C@H](CN1CCCC1)c1ccccc1 | 0.788
COc1ccc(/C=C/c2cc(O)cc(O)c2)cc1 | 1.13
COC(=O)c1cncn1C(C)c1ccccc1 (centres undefined) | -2.15
O=C(O)COc1cc(Cl)c(Cl)cc1Cl | 2.09
CCCN(CCC)[C@@H]1CCc2cccc(O)c2C1 | 1.32
CC(CC(C(N)=O)(c1ccccc1)c1ccccc1)N(C)C (centres undefined) | 0.994
CN1C(=O)c2ccccc2NC(=O)[C@]12O[C@@H]2c1ccccc1 | 0.776
CN1CC(CNC(=O)OCc2ccccc2)C[C@H]2c3cccc4c3c(cn4C)CC21 (some centres undefined) | 1.44
c1cncc([C@@H]2CCCCN2)c1 | 3.61
COc1ccc2c(c1OC)C(=O)O[C@@H]2[C@H]1c2cc3c(cc2CCN1C)OCO3 | 1.85

From the supplement of paper PMC7858590
